PubChem BioAssay AID1259254, NCATS – 2017
The whole screen tested about 59,000 reagents; shown is a part drawn at random. Over the whole deposit, about 1,550 (2.6%) got an active call. 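G2 share is only a proxy for re-replication; each gene was hit by three separate siRNAs, and active genes were retested.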 A number with no mark means an inactive call. Not all columns of the deposit are shown. Reagent sequences are not shown. Not stated in the record: the amount of reagent.

Test: 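Genome-wide screen for genes that prevent DNA re-replication in cancer cells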 (primary screen)
Cells: human HCT116 colorectal cancer cells
Reagents: single siRNA against human genes
Time to read-out: 3 days
Measured: 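Nuclei stained with Hoechst and imaged; cell-cycle phase assigned by DNA content; G2 share scaled per plate, non-targeting siRNA 0%, GMNN siRNA 100%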
Scale: G2 robust z-score and G2 cells, % of GMNN control: higher = more G2 cells, more excess DNA replication
Rule for the call: 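Active siRNAs have a G2 robust z of 5 or more median absolute deviations over the median, which in these data means about 38% or higher of GMNN control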

After knock-down of CHIC2 (cysteine rich hydrophobic domain 2) [SID160738023] the results were G2 robust z-score -1.01; G2 cells, % of GMNN control -4.15.
For CHIC2 (cysteine rich hydrophobic domain 2) [SID160738025], the values are G2 robust z-score 0.49; G2 cells, % of GMNN control 6.42.
Knock-down of CHIC2 (cysteine rich hydrophobic domain 2) [SID160738026] resulted in: G2 robust z-score -0.582; G2 cells, % of GMNN control -1.13.
Knock-down of BMP7 (bone morphogenetic protein 7) [SID160728346] came out at: G2 robust z-score -0.66; G2 cells, % of GMNN control -1.68.
With knock-down of BMP7 (bone morphogenetic protein 7) [SID160728357], the record shows G2 robust z-score 3.44; G2 cells, % of GMNN control 27.2.
After knock-down of BMP7 (bone morphogenetic protein 7) [SID160728368], the record shows G2 robust z-score -0.609; G2 cells, % of GMNN control -1.32.
LOC100289495 [SID160733336] showed G2 robust z-score 2.55; G2 cells, % of GMNN control 20.9.
Depletion of LOC100289495 [SID160767235] came out at: G2 robust z-score -0.225; G2 cells, % of GMNN control 1.39.
Against LOC100289495 [SID160767236], the entry reads G2 robust z-score -0.466; G2 cells, % of GMNN control -0.312.
BCL7B (BAF chromatin remodeling complex subunit BCL7B) [SID160721860] showed G2 robust z-score -0.738; G2 cells, % of GMNN control -2.23.
BCL7B (BAF chromatin remodeling complex subunit BCL7B) [SID160721861] gave G2 robust z-score -0.246; G2 cells, % of GMNN control 1.24.
BCL7B (BAF chromatin remodeling complex subunit BCL7B) [SID160735203] scored G2 robust z-score -0.633; G2 cells, % of GMNN control -1.49.
Depletion of DOK2 (docking protein 2) [SID160721336] gave: G2 robust z-score -0.313; G2 cells, % of GMNN control 0.768.
DOK2 (docking protein 2) [SID160721337] scored G2 robust z-score -1.24; G2 cells, % of GMNN control -5.76.
For DOK2 (docking protein 2) [SID160721338], the entry reads G2 robust z-score 1.68; G2 cells, % of GMNN control 14.8.
PIK3R3 (phosphoinositide-3-kinase regulatory subunit 3) [SID160720179] scored G2 robust z-score 0.292; G2 cells, % of GMNN control 5.02.
Depletion of PIK3R3 (phosphoinositide-3-kinase regulatory subunit 3) [SID160720180] resulted in: G2 robust z-score 0.138; G2 cells, % of GMNN control 3.94.
PIK3R3 (phosphoinositide-3-kinase regulatory subunit 3) [SID160720181] showed G2 robust z-score -0.0482; G2 cells, % of GMNN control 2.63.

3 entries from above, sorted by “G2 robust z-score”, ascending:
BCL7B (BAF chromatin remodeling complex subunit BCL7B) [SID160721860]: G2 robust z-score = -0.738; G2 cells, % of GMNN control = -2.23
LOC100289495 [SID160767236]: G2 robust z-score = -0.466; G2 cells, % of GMNN control = -0.312
LOC100289495 [SID160767235]: G2 robust z-score = -0.225; G2 cells, % of GMNN control = 1.39
